Values quoted from earlier work in patent US12329747B2, “Use of lipophilic beta-lactam antibiotics and carboxylate esters for the treatment of bacterial infections within citrus and other plant species” (priority 2019, dated 2025).
Structures can show the parent of a compound that is named as a salt. At least one structure is not confirmed: it was looked up by name or label, or the drawing left a doubt.

System: fire blight (Erwinia amylovera)
Details: background statement; cited from earlier work

## CN(C)[C@@H]1C(O)=C(C(N)=O)C(=O)[C@@]2(O)C(O)=C3C(=O)c4c(O)cccc4[C@@](C)(O)[C@H]3[C@H](O)[C@@H]12 [oxytetracycline hydrochloride]
  bactericidal or bacteriostatic action: only bacteriostatic
